PubChem BioAssay AID686938 – Drosophila RNAi Screening Center | 2013

Screen: 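Fly genes required for calcium entry once internal stores are emptied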 (primary screen)
System: Drosophila S2R+ cells
Knock-down reagent: long dsRNA against Drosophila genes, about 0.25 µg dsRNA per well, roughly 10,000 cells
Time to read-out: 5 days of knock-down before the calcium assay
Treatment: thapsigargin (SERCA pump blocker) to empty calcium stores; entry signal taken 4 min after adding it
Measurement: 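Duplicate raw fluo-4 intensities per well from a plate reader, at rest and four minutes after thapsigargin emptied calcium stores; entry-to-rest ratio filled for only some wells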
Direction: calcium entry signal: higher = stronger calcium signal after store depletion; entry to resting ratio: higher = more calcium entry relative to resting level; resting calcium signal: higher = higher resting calcium signal
Rule for the call: 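Hit if the duplicate-averaged plate z-score for entry over resting signal is under −3; wells with weak total dye signal (Fmax z < −2) or more than 5 off-targets removed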
Calls: active = strongly reduced calcium entry; inactive = no strong reduction
The deposit covers about 23,000 reagents; this is an unselected part of those with a known target gene and a result. Over the whole deposit, 75 (0.33%) were called active. 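Raw plate signals without normalisation; calls rest on plate z-scores that were not deposited; ratio present for only 364 wells.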 Reagents against one gene are numbered here. Names joined by + are all predicted targets of the reagent. Not stated in the record: the dose of the treatment.

| gene | reagent | calcium entry signal, replicate 1 (fluorescence units) | calcium entry signal, replicate 2 (fluorescence units) | entry to resting ratio | resting calcium signal, replicate 1 (fluorescence units) | resting calcium signal, replicate 2 (fluorescence units) | Call |
| --- | --- | --- | --- | --- | --- | --- | --- |
| CG13004 | 1 | 3.56e7 | 3.07e7 | – | 1.87e7 | 1.58e7 | inactive |
| exu | 1 | 4.23e7 | 3.28e7 | – | 1.94e7 | 1.68e7 | inactive |
| CG8607 | 1 | 2.41e7 | 3.25e7 | – | 1.15e7 | 1.52e7 | inactive |
| Or85e | 1 | 3.96e7 | 3.58e7 | – | 1.67e7 | 1.43e7 | inactive |
| CG8701 | 1 | 4.05e7 | 3.76e7 | – | 1.71e7 | 1.79e7 | inactive |
| Gapdh2 | 1 | 3.36e7 | 3.92e7 | – | 2.05e7 | 1.91e7 | inactive |
| CG42521 | 1 | 1.47e7 | 2.02e7 | – | 8.38e6 | 9.85e6 | inactive |
| CG14795 | 1 | 2.48e7 | 3.42e7 | 2 | 1.24e7 | 1.41e7 | inactive |
| CG30376 | 1 | 3.41e7 | 4.65e7 | – | 1.81e7 | 2.06e7 | inactive |
| CG5327 | 1 | 5.75e7 | 5.35e7 | – | 2.54e7 | 2.40e7 | inactive |
| HIP + HIP-R | 1 | 3.82e7 | 4.34e7 | – | 1.81e7 | 2.04e7 | inactive |
| alrm | 1 | 3.66e7 | 5.18e7 | – | 1.97e7 | 2.33e7 | inactive |
| Suv3 | 1 | 3.52e7 | 5.24e7 | – | 1.57e7 | 3.49e7 | inactive |
| Pex1 | 1 | 2.40e7 | 3.17e7 | – | 1.19e7 | 2.17e7 | inactive |
| RpS20 | 1 | 9.41e6 | 1.53e7 | – | 7.08e6 | 8.98e6 | inactive |
| CG31230 | 1 | 1.83e7 | 3.03e7 | – | 9.62e6 | 1.62e7 | inactive |
| CG33269 | 1 | 4.05e7 | 5.08e7 | – | 2.43e7 | 2.74e7 | inactive |
| CG4194 | 1 | 3.96e7 | 4.38e7 | – | 1.86e7 | 2.04e7 | inactive |
| IA-2 | 1 | 4.88e7 | 6.33e7 | – | 2.85e7 | 2.86e7 | inactive |
| IA-2 | 2 | 4.34e7 | – | – | 2.54e7 | – | inactive |
| IA-2 | 3 | 3.42e7 | 3.66e7 | – | 1.89e7 | 1.60e7 | inactive |
| sds22 | 1 | 3.54e7 | 4.84e7 | – | 1.58e7 | 8.19e7 | inactive |
| CG13331 | 1 | 3.58e7 | 3.68e7 | – | 1.75e7 | 1.54e7 | inactive |
| CG5011 | 1 | 5.26e7 | – | – | 2.65e7 | – | inactive |
| lin | 1 | 2.36e7 | 2.37e7 | – | 1.10e7 | 1.14e7 | inactive |
| CG7332 | 1 | 4.07e7 | 3.95e7 | – | 1.93e7 | 1.56e7 | inactive |
| Cyp4ac3 | 1 | 4.95e7 | – | – | 2.00e7 | – | inactive |
| Ir62a | 1 | 3.53e7 | 4.21e7 | – | 1.82e7 | 1.98e7 | inactive |
| CG33639 | 1 | 3.38e7 | 4.14e7 | – | 1.71e7 | 1.88e7 | inactive |
| CG33639 | 2 | 3.01e7 | 3.42e7 | – | 1.59e7 | 1.77e7 | inactive |
| eIF4G1 | 1 | 2.28e7 | 2.26e7 | – | 1.36e7 | 1.28e7 | inactive |
| CG13005 | 1 | 3.09e7 | 3.32e7 | – | 1.72e7 | 1.65e7 | inactive |
| CG13748 | 1 | 3.72e7 | 3.98e7 | – | 1.76e7 | 1.71e7 | inactive |
| Ir68a | 1 | 3.13e7 | 4.92e7 | – | 1.64e7 | 2.17e7 | inactive |
| CG9010 | 1 | 3.80e7 | 3.65e7 | – | 1.76e7 | 1.82e7 | inactive |
| Rab21 | 1 | 2.84e7 | 3.54e7 | – | 1.58e7 | 1.81e7 | inactive |
| GILT1 | 1 | 3.96e7 | 4.83e7 | – | 1.62e7 | 2.10e7 | inactive |
| CG10863 | 1 | 4.91e7 | 3.22e7 | – | 3.25e7 | 1.52e7 | inactive |
| Lectin-galC1 | 1 | 5.00e7 | 5.05e7 | – | 2.51e7 | 2.10e7 | inactive |
| wntD | 1 | 3.22e7 | 5.67e7 | – | 1.64e7 | 8.26e7 | inactive |
| Glut4EF | 1 | 3.89e7 | 4.10e7 | – | 2.30e7 | 2.22e7 | inactive |
| Glut4EF | 2 | 4.22e7 | 3.93e7 | – | 2.09e7 | 1.92e7 | inactive |
| Glut4EF | 3 | 4.40e7 | 3.85e7 | – | 2.06e7 | 1.87e7 | inactive |
| Glut4EF | 4 | 4.12e7 | 3.59e7 | – | 2.15e7 | 1.87e7 | inactive |
| Glut4EF | 5 | 3.87e7 | 3.65e7 | – | 1.93e7 | 1.80e7 | inactive |
| Glut4EF | 6 | 3.17e7 | 3.93e7 | – | 1.67e7 | 1.77e7 | inactive |
| mst | 1 | 4.23e7 | 4.29e7 | – | 1.94e7 | 1.65e7 | inactive |
| Septin4 | 1 | 2.82e7 | 2.88e7 | – | 1.48e7 | 1.36e7 | inactive |
| kmg | 1 | 4.27e7 | 3.63e7 | – | 1.98e7 | 1.79e7 | inactive |
| CG17739 | 1 | 4.06e7 | 3.68e7 | – | 1.69e7 | 1.74e7 | inactive |
| Mondo | 1 | 3.81e7 | – | – | 1.90e7 | – | inactive |
| Mondo | 2 | 4.50e7 | 4.59e7 | – | 2.24e7 | 2.03e7 | inactive |
| Mondo | 3 | 2.33e7 | 4.53e7 | – | 1.18e7 | 1.96e7 | inactive |
| CG13875 | 1 | 3.99e7 | 4.51e7 | – | 2.00e7 | 2.08e7 | inactive |
| PMP34 | 1 | 3.94e7 | 6.73e7 | – | 1.86e7 | 3.17e7 | inactive |
| CG12112 | 1 | 2.88e7 | 3.34e7 | – | 1.41e7 | 1.56e7 | inactive |
| nahoda | 1 | 3.02e7 | 6.40e7 | – | 1.44e7 | 2.58e7 | inactive |
| nahoda | 2 | 3.99e7 | – | – | 1.76e7 | – | inactive |
| h-cup + Rbp | 1 | 2.29e7 | 3.41e7 | – | 1.21e7 | 5.65e7 | inactive |
| qtc | 1 | 4.17e7 | – | – | 1.79e7 | – | inactive |
| qtc | 2 | 4.03e7 | 3.32e7 | – | 1.99e7 | 1.69e7 | inactive |
| Cen | 1 | 2.90e7 | – | – | 1.55e7 | – | inactive |
| asRNA:CR43159 + yellow-k | 1 | 5.75e7 | 5.15e7 | – | 2.24e7 | 2.10e7 | inactive |
| nub | 1 | 3.06e7 | 3.01e7 | – | 1.55e7 | 1.24e7 | inactive |
| nub | 2 | 4.51e7 | 3.38e7 | – | 2.02e7 | 1.51e7 | inactive |
| nub | 3 | 5.38e7 | 3.30e7 | – | 2.25e7 | 1.54e7 | inactive |
| nub | 4 | 4.72e7 | 3.27e7 | – | 2.07e7 | 1.62e7 | inactive |
| nub | 5 | 6.59e7 | 3.32e7 | – | 3.11e7 | 1.41e7 | inactive |
| Tango9 | 1 | 2.70e7 | 4.74e7 | – | 1.25e7 | 1.91e7 | inactive |
| CG4887 | 1 | 4.38e7 | 5.07e7 | – | 1.88e7 | 2.25e7 | inactive |
| CG4887 | 2 | 4.25e7 | 3.56e7 | – | 2.62e7 | 1.68e7 | inactive |
| CG11178 | 1 | 4.04e7 | 4.08e7 | – | 1.76e7 | 2.04e7 | inactive |
| CG2493 | 1 | 3.81e7 | – | – | 2.07e7 | – | inactive |
| AANATL7 | 1 | 3.44e7 | 4.30e7 | 1.9 | 1.82e7 | 1.60e7 | inactive |
| path | 1 | 2.58e7 | 3.40e7 | – | 1.30e7 | 1.44e7 | inactive |
